Experimental findings from US7851590B2 (7TM Pharma A/S, priority 2005, dated 2010) are described below.

The nature of the series: general procedure: Fmoc solid-phase peptide synthesis; Rink Amide MBHA; HBTU/HOBt/DIEA. The settings on record: whole synthesis, 220 nm, scale 0.25 mmole.

[Lys4, Leu17, Thr30, Gln34]hPP: the “final HPLC purity” value was determined as 95%.
